Measurements: the supplement of paper PMC10849652
The other results are listed elsewhere or left out.

By UniProt entry, the sequences of proteins in these tests, tags left out. Where a name states a change or a piece, a line headed by the entry shows the natural chain unless it says otherwise.
UniProt Q9Y281, whole entry, looked up: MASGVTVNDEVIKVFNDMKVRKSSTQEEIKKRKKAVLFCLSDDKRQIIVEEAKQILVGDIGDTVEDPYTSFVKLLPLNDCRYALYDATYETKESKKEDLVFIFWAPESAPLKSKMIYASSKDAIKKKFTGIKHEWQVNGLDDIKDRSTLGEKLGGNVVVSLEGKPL
UniProt Q8IW35: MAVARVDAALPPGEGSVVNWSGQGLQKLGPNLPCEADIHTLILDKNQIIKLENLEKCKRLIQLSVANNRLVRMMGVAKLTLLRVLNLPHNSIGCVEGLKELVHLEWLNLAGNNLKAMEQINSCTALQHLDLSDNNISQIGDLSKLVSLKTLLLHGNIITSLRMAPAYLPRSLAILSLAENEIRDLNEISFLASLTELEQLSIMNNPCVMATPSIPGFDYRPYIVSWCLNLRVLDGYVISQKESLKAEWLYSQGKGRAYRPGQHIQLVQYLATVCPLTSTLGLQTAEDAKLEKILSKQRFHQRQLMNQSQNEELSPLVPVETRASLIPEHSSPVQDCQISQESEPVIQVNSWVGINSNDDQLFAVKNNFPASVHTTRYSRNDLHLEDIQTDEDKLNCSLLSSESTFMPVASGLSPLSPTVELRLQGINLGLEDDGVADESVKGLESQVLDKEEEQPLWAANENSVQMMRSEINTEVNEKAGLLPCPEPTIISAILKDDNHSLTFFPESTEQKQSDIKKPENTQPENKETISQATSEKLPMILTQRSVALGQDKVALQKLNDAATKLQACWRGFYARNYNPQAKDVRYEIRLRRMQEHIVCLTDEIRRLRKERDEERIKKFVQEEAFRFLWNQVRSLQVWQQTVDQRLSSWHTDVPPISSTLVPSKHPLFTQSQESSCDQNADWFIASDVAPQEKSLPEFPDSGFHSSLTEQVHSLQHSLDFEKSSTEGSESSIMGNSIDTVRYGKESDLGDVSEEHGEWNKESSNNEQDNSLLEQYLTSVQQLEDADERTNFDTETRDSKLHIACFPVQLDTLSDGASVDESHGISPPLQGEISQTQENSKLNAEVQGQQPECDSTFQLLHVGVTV
UniProt Q99618: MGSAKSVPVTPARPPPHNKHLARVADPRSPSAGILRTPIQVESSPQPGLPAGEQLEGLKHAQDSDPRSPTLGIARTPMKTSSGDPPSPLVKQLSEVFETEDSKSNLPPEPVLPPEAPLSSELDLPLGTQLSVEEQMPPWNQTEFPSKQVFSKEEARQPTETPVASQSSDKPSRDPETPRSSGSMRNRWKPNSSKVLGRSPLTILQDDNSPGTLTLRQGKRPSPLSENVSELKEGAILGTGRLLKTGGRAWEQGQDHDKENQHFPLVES
UniProt Q96G23: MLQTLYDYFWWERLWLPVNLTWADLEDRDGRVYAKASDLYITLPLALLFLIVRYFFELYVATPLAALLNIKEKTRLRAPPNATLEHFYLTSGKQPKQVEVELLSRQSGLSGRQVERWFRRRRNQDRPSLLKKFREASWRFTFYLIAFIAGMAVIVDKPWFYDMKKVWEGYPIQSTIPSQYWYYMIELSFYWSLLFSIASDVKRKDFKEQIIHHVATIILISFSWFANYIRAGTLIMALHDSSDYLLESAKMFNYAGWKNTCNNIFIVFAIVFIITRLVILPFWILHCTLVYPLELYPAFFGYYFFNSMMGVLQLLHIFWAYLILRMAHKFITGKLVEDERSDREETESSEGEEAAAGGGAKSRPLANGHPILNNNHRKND
UniProt Q9BS16: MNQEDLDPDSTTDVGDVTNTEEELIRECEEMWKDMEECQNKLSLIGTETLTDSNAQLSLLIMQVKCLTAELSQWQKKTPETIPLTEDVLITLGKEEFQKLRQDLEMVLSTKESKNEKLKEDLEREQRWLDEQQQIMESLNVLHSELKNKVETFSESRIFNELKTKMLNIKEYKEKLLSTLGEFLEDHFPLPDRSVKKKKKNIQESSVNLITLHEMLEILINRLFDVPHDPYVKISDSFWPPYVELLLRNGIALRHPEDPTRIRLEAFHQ
UniProt Q71F23: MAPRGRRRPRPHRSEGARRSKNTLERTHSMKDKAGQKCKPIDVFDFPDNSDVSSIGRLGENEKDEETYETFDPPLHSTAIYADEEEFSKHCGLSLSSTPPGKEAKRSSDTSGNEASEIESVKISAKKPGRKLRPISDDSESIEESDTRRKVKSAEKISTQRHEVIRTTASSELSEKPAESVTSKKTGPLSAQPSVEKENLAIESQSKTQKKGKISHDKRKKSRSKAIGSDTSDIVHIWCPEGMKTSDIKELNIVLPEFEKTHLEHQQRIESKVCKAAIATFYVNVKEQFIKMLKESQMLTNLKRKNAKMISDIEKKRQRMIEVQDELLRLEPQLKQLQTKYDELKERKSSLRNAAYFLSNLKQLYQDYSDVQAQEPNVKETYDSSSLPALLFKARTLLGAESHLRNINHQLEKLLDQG
UniProt Q9Y5S2: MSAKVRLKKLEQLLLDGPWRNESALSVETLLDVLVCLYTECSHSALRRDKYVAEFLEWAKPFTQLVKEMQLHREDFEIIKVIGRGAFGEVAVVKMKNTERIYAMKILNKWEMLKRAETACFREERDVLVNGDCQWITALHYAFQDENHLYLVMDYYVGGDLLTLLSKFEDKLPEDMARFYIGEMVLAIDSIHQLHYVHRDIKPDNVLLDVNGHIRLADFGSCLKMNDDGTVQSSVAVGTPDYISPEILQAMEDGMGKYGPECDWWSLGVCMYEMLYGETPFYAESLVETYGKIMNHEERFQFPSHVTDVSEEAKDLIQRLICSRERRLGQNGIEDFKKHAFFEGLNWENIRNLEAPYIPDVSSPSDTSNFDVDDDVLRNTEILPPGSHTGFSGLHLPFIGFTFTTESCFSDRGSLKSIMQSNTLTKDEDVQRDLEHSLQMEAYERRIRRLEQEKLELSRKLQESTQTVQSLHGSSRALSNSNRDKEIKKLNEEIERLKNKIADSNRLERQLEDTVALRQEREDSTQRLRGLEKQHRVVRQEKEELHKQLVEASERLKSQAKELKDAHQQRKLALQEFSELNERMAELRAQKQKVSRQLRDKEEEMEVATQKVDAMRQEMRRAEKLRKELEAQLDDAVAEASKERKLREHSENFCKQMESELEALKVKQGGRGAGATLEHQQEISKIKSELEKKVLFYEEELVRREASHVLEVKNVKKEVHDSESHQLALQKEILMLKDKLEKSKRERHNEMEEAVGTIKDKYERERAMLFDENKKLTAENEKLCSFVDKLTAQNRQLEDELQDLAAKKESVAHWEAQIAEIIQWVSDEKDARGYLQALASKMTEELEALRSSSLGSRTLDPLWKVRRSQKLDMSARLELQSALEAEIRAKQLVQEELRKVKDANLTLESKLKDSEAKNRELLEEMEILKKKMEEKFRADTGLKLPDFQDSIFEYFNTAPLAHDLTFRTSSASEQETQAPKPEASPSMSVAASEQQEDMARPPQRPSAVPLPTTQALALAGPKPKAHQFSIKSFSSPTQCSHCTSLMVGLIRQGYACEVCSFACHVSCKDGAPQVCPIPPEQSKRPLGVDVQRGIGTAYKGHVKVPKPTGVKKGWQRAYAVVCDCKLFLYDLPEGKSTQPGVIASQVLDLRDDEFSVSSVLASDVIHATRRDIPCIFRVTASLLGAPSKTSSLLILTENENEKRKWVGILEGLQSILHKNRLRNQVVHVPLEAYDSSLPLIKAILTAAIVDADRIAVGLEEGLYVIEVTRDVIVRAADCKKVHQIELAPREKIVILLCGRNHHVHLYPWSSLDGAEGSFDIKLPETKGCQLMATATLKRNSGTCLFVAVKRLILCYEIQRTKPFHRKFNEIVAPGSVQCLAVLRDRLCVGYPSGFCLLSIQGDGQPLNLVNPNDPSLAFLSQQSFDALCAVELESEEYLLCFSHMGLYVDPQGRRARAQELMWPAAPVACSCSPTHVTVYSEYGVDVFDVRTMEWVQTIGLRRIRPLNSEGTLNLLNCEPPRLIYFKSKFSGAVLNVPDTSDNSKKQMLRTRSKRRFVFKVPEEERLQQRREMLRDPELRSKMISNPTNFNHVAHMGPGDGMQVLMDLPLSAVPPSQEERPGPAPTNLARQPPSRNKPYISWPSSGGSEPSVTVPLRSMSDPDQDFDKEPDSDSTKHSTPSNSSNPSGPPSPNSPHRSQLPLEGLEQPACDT
UniProt Q6P2H3: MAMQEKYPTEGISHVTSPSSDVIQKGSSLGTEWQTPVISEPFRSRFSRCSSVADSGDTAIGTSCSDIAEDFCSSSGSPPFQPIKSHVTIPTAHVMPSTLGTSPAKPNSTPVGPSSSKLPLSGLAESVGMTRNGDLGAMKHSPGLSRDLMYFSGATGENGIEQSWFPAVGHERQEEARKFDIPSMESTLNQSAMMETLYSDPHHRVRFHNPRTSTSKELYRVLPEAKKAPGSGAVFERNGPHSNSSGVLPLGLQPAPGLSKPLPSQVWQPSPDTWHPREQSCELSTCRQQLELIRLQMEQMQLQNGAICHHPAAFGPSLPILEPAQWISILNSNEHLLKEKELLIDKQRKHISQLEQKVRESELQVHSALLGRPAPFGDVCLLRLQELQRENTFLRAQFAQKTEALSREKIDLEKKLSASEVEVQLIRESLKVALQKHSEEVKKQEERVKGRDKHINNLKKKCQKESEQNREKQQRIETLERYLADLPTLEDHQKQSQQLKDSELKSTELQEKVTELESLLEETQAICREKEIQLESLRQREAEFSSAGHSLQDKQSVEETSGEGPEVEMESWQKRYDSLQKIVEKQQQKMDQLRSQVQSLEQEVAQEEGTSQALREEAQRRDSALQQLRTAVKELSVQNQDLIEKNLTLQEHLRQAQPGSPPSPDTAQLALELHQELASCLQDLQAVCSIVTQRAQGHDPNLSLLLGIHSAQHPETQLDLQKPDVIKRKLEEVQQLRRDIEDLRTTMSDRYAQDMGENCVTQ
UniProt Q9BWU1: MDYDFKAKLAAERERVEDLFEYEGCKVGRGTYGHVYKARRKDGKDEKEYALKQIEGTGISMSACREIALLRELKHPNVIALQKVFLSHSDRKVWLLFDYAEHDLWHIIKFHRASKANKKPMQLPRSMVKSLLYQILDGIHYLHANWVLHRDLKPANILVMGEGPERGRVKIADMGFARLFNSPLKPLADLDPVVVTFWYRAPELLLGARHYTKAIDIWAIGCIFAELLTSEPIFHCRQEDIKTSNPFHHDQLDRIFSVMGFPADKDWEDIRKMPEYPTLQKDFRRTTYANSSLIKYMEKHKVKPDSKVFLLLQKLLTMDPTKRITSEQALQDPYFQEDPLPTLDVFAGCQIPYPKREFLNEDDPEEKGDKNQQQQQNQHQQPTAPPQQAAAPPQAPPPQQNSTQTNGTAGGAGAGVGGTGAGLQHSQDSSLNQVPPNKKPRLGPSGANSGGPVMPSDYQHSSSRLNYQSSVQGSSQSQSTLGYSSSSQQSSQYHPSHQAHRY
UniProt P41208: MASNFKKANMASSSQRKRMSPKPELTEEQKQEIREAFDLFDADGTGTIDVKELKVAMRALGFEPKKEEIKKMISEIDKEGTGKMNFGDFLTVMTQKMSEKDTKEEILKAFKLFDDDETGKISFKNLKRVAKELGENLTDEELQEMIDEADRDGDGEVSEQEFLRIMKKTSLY
UniProt Q9UJX2, whole entry, looked up: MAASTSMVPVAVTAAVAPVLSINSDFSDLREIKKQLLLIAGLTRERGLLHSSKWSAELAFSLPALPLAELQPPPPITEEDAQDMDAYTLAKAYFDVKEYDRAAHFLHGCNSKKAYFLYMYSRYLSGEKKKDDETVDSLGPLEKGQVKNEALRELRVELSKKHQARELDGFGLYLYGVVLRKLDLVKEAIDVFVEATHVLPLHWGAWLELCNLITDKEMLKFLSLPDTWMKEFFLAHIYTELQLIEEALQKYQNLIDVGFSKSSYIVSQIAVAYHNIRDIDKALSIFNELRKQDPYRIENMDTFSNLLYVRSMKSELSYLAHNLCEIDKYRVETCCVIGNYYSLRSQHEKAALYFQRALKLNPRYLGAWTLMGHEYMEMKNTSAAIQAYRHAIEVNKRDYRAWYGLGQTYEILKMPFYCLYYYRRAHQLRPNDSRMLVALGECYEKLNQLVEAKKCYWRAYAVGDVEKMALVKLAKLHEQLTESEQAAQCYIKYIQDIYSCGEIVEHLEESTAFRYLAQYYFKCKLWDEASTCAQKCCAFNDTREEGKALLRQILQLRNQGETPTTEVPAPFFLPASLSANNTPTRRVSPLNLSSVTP
UniProt O14519: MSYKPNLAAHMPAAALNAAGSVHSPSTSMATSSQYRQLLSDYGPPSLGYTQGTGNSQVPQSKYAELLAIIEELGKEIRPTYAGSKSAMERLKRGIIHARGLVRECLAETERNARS
UniProt Q7L3B6: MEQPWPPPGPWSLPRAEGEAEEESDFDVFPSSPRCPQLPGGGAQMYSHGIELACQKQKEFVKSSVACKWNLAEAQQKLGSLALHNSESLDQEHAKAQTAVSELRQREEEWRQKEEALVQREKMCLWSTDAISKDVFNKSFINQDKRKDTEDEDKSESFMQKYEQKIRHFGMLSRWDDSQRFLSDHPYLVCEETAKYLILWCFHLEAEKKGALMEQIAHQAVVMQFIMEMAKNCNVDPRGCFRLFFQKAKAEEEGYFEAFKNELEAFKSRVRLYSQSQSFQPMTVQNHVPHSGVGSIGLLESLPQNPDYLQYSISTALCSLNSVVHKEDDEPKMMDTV

These targets were tested with COc1cc(Nc2ncc3c(n2)-c2ccc(Cl)cc2C(c2c(F)cccc2OC)=NC3)ccc1C(=O)O [alisertib] (assay: log2 fold change, soluble protein after heating vs DMSO (PISA); higher = thermal stabilisation; K562 lysate, 10 uM; active = over 0.2 and 3.5 SD of the protein, either way, in both replicates (recomputed)).
Outline: (§1)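 Pellets of K562 cells were dounce-homogenised in PBS pH 7.4 with 1 mM MgCl2, and the crude extract was held at 1 mg/mL protein for a 30 min treatment with 10 μM compound. Aliquots were heated for 3 min over 48°C-58°C and pooled before NP-40 was added to 0.5% at 4°C. The supernatant from 21,000xg for 90 min was quantified by TMTpro 16plex LC-MS/MS with channel sums equalised. Values are reported from duplicates as log-two fold change in thermal stability relative to solvent controls.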

log2 fold change, inactive:
CEP350 (UniProt Q5VT06) -0.002
CEP170 (UniProt Q5SW79) 0
CFH (UniProt P08603) -0.068
CFL2 (UniProt Q9Y281) 0.002
CFDP1 (UniProt Q9UEE9) -0.013
CEP97 (UniProt Q8IW35) 0.056
CDCA3 (UniProt Q99618) -0.019
CDC42 isoform 1 (UniProt P60953) 0.004
CENPH (UniProt Q9H3R5) -0.031
CERS2 (UniProt Q96G23) 0.035
CDC45 isoform 3 (UniProt O75419) 0.023
CFL1 (UniProt P23528) -0.01
CENPK (UniProt Q9BS16) -0.015
CDCP1 (UniProt Q9H5V8) -0.015
CDC26 (UniProt Q8NHZ8) 0.024
CENPU (UniProt Q71F23) 0.092
CDC42BPB (UniProt Q9Y5S2) -0.014
CEP85 isoform 2 (UniProt Q6P2H3) 0.034
CDKAL1 (UniProt Q5VV42) 0.004
CEP135 (UniProt Q66GS9) -0.02
CDK19 (UniProt Q9BWU1) -0.157
CEP76 (UniProt Q8TAP6) 0.002
CDIPT (UniProt O14735) 0.059
CDR2 (UniProt Q01850) 0.002
CDC40 (UniProt O60508) -0.049
CDC42 (UniProt P60953) -0.104
CETN2 (UniProt P41208) 0.057
CDC23 (UniProt Q9UJX2) 0.002
CDK2AP1 (UniProt O14519) 0.04
CDC37L1 (UniProt Q7L3B6) -0.096
CENPS (UniProt Q8N2Z9) -0.069
CDC5L (UniProt Q99459) 0.01
CERS6 isoform 2 (UniProt Q6ZMG9) 0.009

The targets below were run with COc1cc2nc(-c3cc(F)ccc3O)nc(N[C@@H]3CNC[C@H]3C(C)(C)O)c2cc1OC in the same assay as above.
Outline: as §1

log2 fold change, inactive:
CEP350 (UniProt Q5VT06) -0.026
CEP170 (UniProt Q5SW79) -0.002
CFH (UniProt P08603) 0.062
CFL2 (UniProt Q9Y281) 0.005
CFDP1 (UniProt Q9UEE9) 0.015
CEP97 (UniProt Q8IW35) -0.022
CDCA3 (UniProt Q99618) 0.007
CDC42 isoform 1 (UniProt P60953) 0.025
CENPH (UniProt Q9H3R5) 0.002
CERS2 (UniProt Q96G23) 0.031
CDC45 isoform 3 (UniProt O75419) 0.009
CFL1 (UniProt P23528) 0
CENPK (UniProt Q9BS16) 0.041
CDCP1 (UniProt Q9H5V8) 0.001
CDC26 (UniProt Q8NHZ8) -0.036
CENPU (UniProt Q71F23) 0.129
CDC42BPB (UniProt Q9Y5S2) 0.128
CEP85 isoform 2 (UniProt Q6P2H3) 0.011
CDKAL1 (UniProt Q5VV42) 0.097
CEP135 (UniProt Q66GS9) 0.029
CDK19 (UniProt Q9BWU1) 0.042
CEP76 (UniProt Q8TAP6) 0
CDIPT (UniProt O14735) -0.151
CDR2 (UniProt Q01850) 0.051
CDC40 (UniProt O60508) 0.034
CDC42 (UniProt P60953) 0.025
CETN2 (UniProt P41208) -0.011
CDC23 (UniProt Q9UJX2) -0.005
CDK2AP1 (UniProt O14519) -0.069
CDC37L1 (UniProt Q7L3B6) 0.006
CENPS (UniProt Q8N2Z9) 0.004
CDC5L (UniProt Q99459) -0.007
CERS6 isoform 2 (UniProt Q6ZMG9) 0.102

The targets below were run with COc1cc2ncnc(Nc3ccc(F)c(Cl)c3)c2cc1OCCCN1CCOCC1 [gefitinib] in the same assay as above.
Outline: as §1

log2 fold change, inactive:
CEP350 (UniProt Q5VT06) 0.078
CEP170 (UniProt Q5SW79) -0.035
CFH (UniProt P08603) -0.096
CFL2 (UniProt Q9Y281) 0.065
CFDP1 (UniProt Q9UEE9) -0.005
CEP97 (UniProt Q8IW35) 0.022
CDCA3 (UniProt Q99618) 0.026
CDC42 isoform 1 (UniProt P60953) 0.014
CENPH (UniProt Q9H3R5) 0.029
CERS2 (UniProt Q96G23) -0.042
CDC45 isoform 3 (UniProt O75419) -0.034
CFL1 (UniProt P23528) 0.003
CENPK (UniProt Q9BS16) -0.063
CDCP1 (UniProt Q9H5V8) 0.014
CDC26 (UniProt Q8NHZ8) 0.076
CENPU (UniProt Q71F23) 0.106
CDC42BPB (UniProt Q9Y5S2) 0.055
CEP85 isoform 2 (UniProt Q6P2H3) -0.013
CDKAL1 (UniProt Q5VV42) -0.007
CEP135 (UniProt Q66GS9) -0.072
CDK19 (UniProt Q9BWU1) 0.147
CEP76 (UniProt Q8TAP6) 0.001
CDIPT (UniProt O14735) 0.069
CDR2 (UniProt Q01850) -0.086
CDC40 (UniProt O60508) -0.021
CDC42 (UniProt P60953) 0.086
CETN2 (UniProt P41208) 0.005
CDC23 (UniProt Q9UJX2) 0.01
CDK2AP1 (UniProt O14519) -0.084
CDC37L1 (UniProt Q7L3B6) 0.04
CENPS (UniProt Q8N2Z9) 0.081
CDC5L (UniProt Q99459) -0.006
CERS6 isoform 2 (UniProt Q6ZMG9) 0.027
